No constants are given. Whether binding was seen depends on the method and setting. Binding can be weak; no strength is given.
Target: T1, purified recombinant equine CXC-chemokine receptor 6 (EqCXCR6) protein (horse (Equus caballus)) (UniProt F6XQ88)
T1 sequence: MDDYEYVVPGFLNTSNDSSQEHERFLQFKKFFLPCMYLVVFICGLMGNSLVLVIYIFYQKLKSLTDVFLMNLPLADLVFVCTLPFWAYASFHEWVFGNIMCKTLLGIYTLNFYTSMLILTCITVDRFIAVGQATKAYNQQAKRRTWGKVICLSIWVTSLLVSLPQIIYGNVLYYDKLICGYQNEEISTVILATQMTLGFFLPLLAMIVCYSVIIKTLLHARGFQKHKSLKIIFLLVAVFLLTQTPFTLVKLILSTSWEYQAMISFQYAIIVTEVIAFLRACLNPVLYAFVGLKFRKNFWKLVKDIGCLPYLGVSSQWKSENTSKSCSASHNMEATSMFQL
Experiment: far-Western, overlay or dot blot; Far-WB: 20 μg purified recombinant EqCXCR6 or BSA on SDS-PAGE, PVDF, denatured and renatured with Gn-HCl, incubated with purified recombinant EqCXCL16S or EqCXCL16R (5 μg/ml), detected with Rb α-EqCXCL16 Ab; both purified

Substance	binding
purified recombinant EqCXCL16R protein produced in E. coli (horse (Equus caballus))	binds
purified recombinant EqCXCL16S protein produced in E. coli (horse (Equus caballus))	binds
